Measured data: PubChem BioAssay AID1224826 (NIAID, 2016)
Here is an unselected part of about 17,000 reagents tested. About 1,110 of all reagents (6.6%) were called active. 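Active means lowered or raised reporter signal; replicate intensities are raw and not normalised per plate.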 Entries without a mark were called inactive. Further read-outs or replicates are left out here.

- Aim: 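Regulators of Tlr4 signalling leading to Tnf-alpha expression in macrophages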 (primary screen)
- Cells: RAW264.7 G9 macrophages from mouse bearing reporters for p65 (GFP) and the Tnf promoter (mCherry)
- Knock-down reagent: siRNA pool against mouse genes, 100 nM
- Duration: 16 h of LPS stimulation, after 2 days of siRNA transfection
- Conditions: bacterial lipopolysaccharide (Salmonella minnesota R595), 10 ng/ml
- Measured: 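Imaged Tnf reporter mCherry in nuclei, minus background, normalised per plate to the median and expressed as robust z-scores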
- Reading the numbers: Tnf reporter robust z-score: higher = stronger Tnf promoter reporter signal after LPS
- Hit rule: 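a well counts as active at a score of -1.3 or below (Tlr4 knock-down control median) or above 3 (raised signal); controls and wells holding fewer than 50 cells are excluded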
- Meaning of the calls: active = Tnf reporter clearly lowered or raised; inactive = no clear change in Tnf reporter

For Atg5 (autophagy related 5) the deposit lists Tnf reporter robust z-score -0.64; fewer than 50 cells in well enough cells in well.
After knock-down of Bub3 (BUB3 mitotic checkpoint protein) the results were Tnf reporter robust z-score 1.58; fewer than 50 cells in well enough cells in well.
For Nlrp12 (NLR family, pyrin domain containing 12), the entry reads Tnf reporter robust z-score 0.61; fewer than 50 cells in well enough cells in well.
After knock-down of Letm2 (leucine zipper-EF-hand containing transmembrane protein 2) the results were Tnf reporter robust z-score 0.06; fewer than 50 cells in well enough cells in well.
With knock-down of BC030500 (cDNA sequence BC030500), the screen gave Tnf reporter robust z-score -0.14; fewer than 50 cells in well enough cells in well.
Zmym3 (zinc finger, MYM-type 3) gave Tnf reporter robust z-score 4.13 (active); fewer than 50 cells in well enough cells in well.
Against Trdv2-2 (T cell receptor delta variable 2-2), the values are Tnf reporter robust z-score 0.43; fewer than 50 cells in well enough cells in well.
Gpaa1 (GPI anchor attachment protein 1) showed Tnf reporter robust z-score -0.32; fewer than 50 cells in well enough cells in well.
With knock-down of Set (SET nuclear proto-oncogene), the record shows Tnf reporter robust z-score -0.19; fewer than 50 cells in well enough cells in well.
Ctxn1 (cortexin 1) scored Tnf reporter robust z-score -1.82 (active); fewer than 50 cells in well enough cells in well.
After knock-down of Slc35e2, the screen gave Tnf reporter robust z-score 0.53; fewer than 50 cells in well enough cells in well.
Cldn5 (claudin 5) showed Tnf reporter robust z-score -0.6; fewer than 50 cells in well enough cells in well.
With knock-down of Panx1 (pannexin 1), the screen gave Tnf reporter robust z-score -0.28; fewer than 50 cells in well enough cells in well.
After knock-down of Snx10 (sorting nexin 10) the results were Tnf reporter robust z-score -1.12; fewer than 50 cells in well enough cells in well.
Runx1t1 (RUNX1 translocation partner 1) gave Tnf reporter robust z-score 0.5; fewer than 50 cells in well enough cells in well.
Nat2 (N-acetyltransferase 2 (arylamine N-acetyltransferase)) gave Tnf reporter robust z-score -1.14; fewer than 50 cells in well enough cells in well.
Silencing of Glcci1 (glucocorticoid induced transcript 1) gave: Tnf reporter robust z-score 2.01; fewer than 50 cells in well enough cells in well.
Depletion of Fut8 (fucosyltransferase 8) resulted in: Tnf reporter robust z-score 0.12; fewer than 50 cells in well enough cells in well.
Against Gcsh, the entry reads Tnf reporter robust z-score -0.29; fewer than 50 cells in well enough cells in well.
Or2y13 (olfactory receptor family 2 subfamily Y member 13) showed Tnf reporter robust z-score -1.19; fewer than 50 cells in well enough cells in well.
Ce9 (immunoglobulin light chain variable region) showed Tnf reporter robust z-score 1.34; fewer than 50 cells in well enough cells in well.
Dcph1 (damage control phosphatase 1) gave fewer than 50 cells in well fewer than 50 cells per well; well left out of calls.
Against Nrn1 (neuritin 1), the values are Tnf reporter robust z-score 1.4; fewer than 50 cells in well enough cells in well.
With knock-down of Dner (delta/notch-like EGF repeat containing), the record shows Tnf reporter robust z-score 0.33; fewer than 50 cells in well enough cells in well.
For Actg1 (actin, gamma, cytoplasmic 1), the entry reads Tnf reporter robust z-score -1.36 (active); fewer than 50 cells in well enough cells in well.
Zfp788 (zinc finger protein 788) showed fewer than 50 cells in well fewer than 50 cells per well; well left out of calls.
Baiap2l1 (BAI1-associated protein 2-like 1) scored Tnf reporter robust z-score -1.01; fewer than 50 cells in well enough cells in well.

A run of entries from the list above, for reference:
Bub3 (BUB3 mitotic checkpoint protein) → Tnf reporter robust z-score = 1.58; fewer than 50 cells in well = enough cells in well
Nlrp12 (NLR family, pyrin domain containing 12) → Tnf reporter robust z-score = 0.61; fewer than 50 cells in well = enough cells in well
